Data taken from PMC6868355.
These are yes or no findings as the source states them, for the method shown. Some binding calls cover weakened binding; strength is not graded here.

What was measured:
[1] = molecular target: recombinant enolase of Sporothrix schenckii (rSsEno) (Sporothrix schenckii) (UniProt U7PSS1); test: SAXS; data not shown; rSsEno at 0.5 and 0.9 mg/mL in Tris-HCl pH 7.5, 100 mM NaCl, 2 mM beta-mercaptoethanol; Guinier analysis, extrapolated to infinite dilution; both purified
[2] = molecular target: recombinant enolase of Sporothrix schenckii (rSsEno) (Sporothrix schenckii) (UniProt U7PSS1); test: SEC; analytical SEC, Superdex 200 GL 10/30, Tris-HCl pH 7.5, 100 mM NaCl, 2 mM beta-mercaptoethanol, room temperature; void marked with blue dextran; no magnesium; both purified

recombinant enolase of Sporothrix schenckii (rSsEno) (from UniProt U7PSS1 1-438) (enzyme)
binding [1]: binds
binding [2]: binds
